Assay results reported in PubChem BioAssay AID1347426 (Functional Genomics Laboratory (NCATS/FGL), 2020).
Among all 31,000 sequences or so, about 1,400 (4.5%) were called active.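 The calls were made as follows: active = median seed-adjusted z-score above 1 or below -1; inactive = the rest.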 This is one part of the list.

Test: Novel Modifiers of Survival Motor Neuron (SMN) Protein: Gene Identification via Genome-wide siRNA Screen;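 also: luminescence tracks full-length SMN protein made from the SMN2 reporter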
Settings: HEK293T SMN2-luciferase reporter, siRNA knockdown, 72 h; actives lie on both sides
Procedure, shortened: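 Luciferase signal, proportional to full-length SMN made from an SMN2 cDNA reporter in stable HEK293T cells, was read 72 h after siRNA reverse transfection. Values were expressed as MAD scores after non-targeting-control normalization and log10 conversion; seed analysis flagged off-targets.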

Sequence | median seed-adjusted z-score
CACACGCACUUUAAGAACATT against KCNC1 | inactive: 0.73
CCACGGAGCUGAUGAACUUTT against GABRD | inactive: 0.428
GCACAGGCCAGGUCAUCAATT against FKBP2 | inactive: -0.0466
CCGCAUCUCCCUAGACAAATT against SERTAD3 | inactive: -0.216
GAGAUUACCUAAGCAAAUUTT against TTC1 | inactive: 0.3
GGAUAUUCAGAAAAGUGUUTT against INSL6 | inactive: 0.777
GAUUUGGACAAGUUAAGAATT against GSTA5 | inactive: 0.523
UGUCAGGUUAUAUUCCUUUTT against SFXN5 | inactive: 0
GAGCACAUAUGUGACUCCATT against CYP2A7 | inactive: 0.342
AGAUCACAGUGCUCAAACATT against SYMPK | inactive: 0.946
AGAAGGAACAUGAGAAGGATT against CBX2 | inactive: -0.215
CACUCUUGGGAGAAACGUATT against OSBPL2 | inactive: 0
CAACAAUUGUCAUCGGAGUTT against RNASE3 | inactive: 0.588
UGACGGCAACUGUUUCUAUTT against OTUB1 | inactive: 0.598
GGACCCAAAUAAACCGGAATT against CACNA1S | inactive: 0.842
CAGAGGAGCUACAAAAGUATT against MX1 | active: -1.49
CCCUACAUGUGAACAACGATT against PRPF8 | active: -1.54
GUCUCAUCCUUACUACCAATT against BPGM | inactive: 0.408
ACAUCUUCAUUAUAGAAUATT against REXO2 | inactive: -0.0419
GGACGAUGAUGUAAUUGUATT against GLT8D2 | inactive: -0.619
CCCAUAUUCGGAUCCAGAATT against PTPN6 | inactive: -0.515
GCUGGUUACUUAUCACCAATT against TPH1 | inactive: -0.055

Sequence | median seed-adjusted z-score
GGUCAUUUACAGCACCGAUTT against MYOC | inactive: 0.764
CGAGAGGUGUAUCAAUAUATT against LIN7A | active: -1.39
GCAAUAGGAUUGUUUUCGATT against ABCC2 | inactive: -0.0464
CGAGAUCUACUUUGGAAAATT against CAPZB | inactive: -0.106
CCUGGACUUUAUCCGCUCATT against SPIRE2 | inactive: 0.0604
GCCGAGUUCUUCUACAACUTT against HRH3 | inactive: 0.276
GGGACUCAGUAUUAGCCUUTT against ECH1 | inactive: 0.0348
GGAUUAUAUUGACAUCAGUTT against DLST | active: 1.16
GCAAGUCGUGAAACUAUAATT against YEATS4 | inactive: 0.905
ACUUGGACCUGUCCUCCAATT against TSKU | inactive: -0.548
GGCCCUCAGGUAAUGCUAATT against TTF2 | inactive: 0.282
GCGAUGUUCUCAUUCCGGATT against ACADL | inactive: 0.223
GAGGAUAUCUUGGUCAGAATT against CYB5R2 | inactive: -0.403
GCACUGUCUACAUCCCUGATT against RHCG | inactive: 0.375
GCAAGACUUUUGGUCGAAATT against ZNF816A | inactive: 0.39
GAUCGAUUACAGUAGGUGATT against ESSPL | inactive: 0.328
GAAGCGGCAUUAGCAGAGATT against ISOC1 | inactive: 0.104
GACACUCUCUAAUCGAAUUTT against SENP5 | inactive: 0.215
GCUUCGUCAUCGACAACAATT against CACNA2D4 | inactive: -0.0464
UCAAUACUCUGAUCCUCAATT against AIPL1 | inactive: -0.259
GAUAAAAGGAUGGAUGAAATT against PRPF6 | active: -1.06
CAUCUACACGCAGAAAUCATT against MS4A6A | inactive: 0.174

6 entries picked at random from the list so far, as already listed:
Sequence | median seed-adjusted z-score
GUCUCAUCCUUACUACCAATT against BPGM | inactive: 0.408
GAUUUGGACAAGUUAAGAATT against GSTA5 | inactive: 0.523
CGAGAUCUACUUUGGAAAATT against CAPZB | inactive: -0.106
CCUGGACUUUAUCCGCUCATT against SPIRE2 | inactive: 0.0604
GCAAGACUUUUGGUCGAAATT against ZNF816A | inactive: 0.39
UGACGGCAACUGUUUCUAUTT against OTUB1 | inactive: 0.598

The results go on.

Sequence | median seed-adjusted z-score
GGGUGGACGUGGAUACUUATT against NFE2L1 | inactive: 0.689
GCACUGAUGUAAAUUACUUTT against RAB6C | active: -1.08
CCAUAUAAGUUUACGUUUATT against TM9SF2 | active: 1.09
CAUGGGAGAUUGUCCUGUATT against CD163 | inactive: 0.021
CUUACUCCCUUCAAACGAATT against GPR64 | inactive: 0.527
GGAACCUACCUGACUAAGATT against ARL9 | inactive: 0.98
GCAGAUAUUUCAUUCAAAUTT against ZNF620 | inactive: 0.172
GUGACAAACCGAUACCUGUTT against COPE | inactive: 0.499
UCUACUAUCUGAACAAGAATT against EGLN3 | inactive: -0.0575
CGGUAGAUGGCAAGACCAUTT against RABL2A | inactive: 0.794
GGAUCUCAGUUUCUUAUCATT against PPIL4 | inactive: 0.00225
GGCAACGACUCUUACCGAATT against MBD4 | inactive: -0.107
GGUCAACUCUCUACUGAUATT against ARHGAP29 | inactive: -0.0483
GGAAUUGUUUAGGACUAAATT against ZNF749 | inactive: 0.911
AAGAAUUUGCAUUACCUUATT against GTPBP8 | inactive: 0.834
GGAUAUCAGCGAAAGGCAATT against GPR21 | inactive: 0.246
GGUGACGGCAGUGACCAAATT against GPR135 | inactive: 0.546
AGGAGUCCCUAAUGCUACATT against TRIM74 | inactive: 0.0932
GGACUGUCUUCAUGCGCUUTT against ENG | inactive: -0.254
GCAGUUGUCCAGUUACGAATT against RAD50 | inactive: 0.266
CCACCAAUGCAUGUGAAAATT against KRT33B | inactive: 0.04
GCAGAUCAAUUUUCGGCUUTT against GLDC | inactive: 0

Sequence | median seed-adjusted z-score
GGUACUAUUUCCUAAGUGATT against HOOK2 | inactive: 0.0914
GAAUGGUCGUGGAUUCACATT against MAPKAPK5 | inactive: 0.489
GCUUGUGCCUUGUCCCAAATT against PRKCDBP | inactive: 0.244
CCACAUCAGCAGUACUACATT against TBX15 | inactive: 0.265
CAAACGAGCAAGUCAGUUUTT against ARHGAP10 | inactive: -0.458
GCAUCUACGAGUUCAUCAUTT against FOXG1 | inactive: 0.749
GAAACUCGACGGUCCUCAATT against SERTAD2 | inactive: 0.43
CCUCAGAACCGGCAAGAAATT against TNFAIP1 | inactive: 0.0766
GCAUAAAGCUCCAAGUGAATT against PLUNC | inactive: 0.254
CAACAUUGGUGGGAAUGCATT against EIF2B2 | inactive: -0.325
UGAUCAUUGUCCCUACAGATT against SERPINA3 | inactive: 0.125
GAGGAGAUCGCGUUCCUUATT against DES | inactive: 0
GGCAUUAAUUCAUGGACUATT against PSMD14 | inactive: 0.375
CCAACACCCUCUCUCGAUATT against PLIN | inactive: 0.166
GAAUCAACAUCUCCCGAGATT against TAC3 | inactive: -0.00265
ACAAAUACAUGGAGAUCCATT against MGAT5B | inactive: 0
GGUCAACCGUUACUAUGGATT against ITPR1 | inactive: -0.0888
CCAGCUAUGAGAAAUCAGATT against FCER1G | inactive: 0.136
GUAUUGAUGUCACCACAGATT against MFN2 | inactive: -0.0968
CCUGGAGAACUAUAUCUCATT against PXN | inactive: -0.69
GAACUGGACCGAUUGCUGUTT against PLEKHM2 | inactive: 0.593
GCCUUUUCGUUAACCGCUUTT against SLC2A1 | inactive: -0.349

Sequence | median seed-adjusted z-score
GCAAAGUCAUGGAGGAAAATT against OSBPL7 | inactive: 0
GGCGCGACCUUCGAAUGUATT against RNF5 | inactive: -0.0342
CAUCAGCUGGUGAUCGAUATT against PPP1R12A | inactive: -0.103
GUGUGAUUGUCGCUCGAAATT against SLC24A1 | inactive: 0.372
AGGUGAAGGACUUAACUAATT against RAB11FIP3 | inactive: 0.0361
AGGAAAUGUUUCGAAGGAATT against SSX3 | inactive: 0
CCACCAUAGGUUAUGGGCATT against KCNK9 | inactive: 0.735
CGGUGACUGUGAACGGCAATT against DNAJB8 | active: -1.09
CAACAAAAGGAGCACACGATT against IFI35 | inactive: 0.105
CAAAUACUCUAGGUUGAUATT against GABRR2 | inactive: 0
GAGCUUUGCUGACCCUUCATT against ZNF668 | inactive: 0
GAAACUCCCGGGUAACUCATT against ZBTB39 | inactive: -0.209
GGACCUUUGGUCAUACUAATT against ENPP4 | inactive: 0
CCAAGUUAUUGAUUACAAATT against OPN5 | inactive: 0.483
GAACCACGGUAACCAUCUATT against GPR18 | inactive: -0.378
AGAAUACGAUGACCACCAATT against RING1 | inactive: 0.685
CUCCAGUUGAUAGAGAAAATT against HOXA9 | inactive: -0.304
GCGUGACCAUGAACGAGUUTT against AKT1 | inactive: -0.288
CUGGAAUUCUUAAGUAAAATT against ANP32C | inactive: -0.421
CUGUGGAAUUUGUAGGAUUTT against RCHY1 | inactive: -0.157
